The source of these data is patent publication US6399580B1, “Methods and compositions for stimulating tissue growth and epithelial moisturization” (The Regents of the University of California, priority 1994, dated 2002).

The subject of this data set is hairless mouse skin. Description: Electron microscopy of treated mouse skin. Format: in vivo. To be noted: BrCBE-treated. On the procedure:
Hairless mice were treated with BrCBE as described in Example 10. Tissue samples from hairless mouse skin were fixed first in glutaraldehyde and then post-fixed in 0.2% ruthenium tetroxide prior to plastic embedding, ultrathin sectioning, and examination in a Zeiss 10A electron microscope (Hou et al. (1991) J. Invest. Dermatol. 96:215-223).

In the case of `OC1C(O)C(Br)C2OC2C1O` (centres unmarked) [BrCBE, bromoconduritol-B-epoxide], under “FIG. 16”, the “membrane structures in stratum corneum intercellular spaces” value was “abnormal (immature) membrane structures”. Moreover, the lamellar bodies entry (FIG. 16D) is on record as “completely normal”.
